Measured values reported in PubChem BioAssay AID588590 (National Center for Advancing Translational Sciences (NCATS), 2011).
Among all 390,000 compounds or so, about 4,000 (1%) were called active. The shares of active, inactive and inconclusive entries below differ from those in the screen. Calls come from the whole dose curve; as a rule, active = well fitted inhibition curve with a large enough effect; inconclusive = small, poorly fitted or top-dose-only effect, or another doubt; inactive = no such curve, though single readings can be large or run the other way. Potencies of inconclusive entries are doubtful fits and often do not repeat.

Amino acid sequences for entries named in this document (tags omitted). A change or cut given only in a name is not applied to a line headed by its entry.
UniProt Q9UNA4: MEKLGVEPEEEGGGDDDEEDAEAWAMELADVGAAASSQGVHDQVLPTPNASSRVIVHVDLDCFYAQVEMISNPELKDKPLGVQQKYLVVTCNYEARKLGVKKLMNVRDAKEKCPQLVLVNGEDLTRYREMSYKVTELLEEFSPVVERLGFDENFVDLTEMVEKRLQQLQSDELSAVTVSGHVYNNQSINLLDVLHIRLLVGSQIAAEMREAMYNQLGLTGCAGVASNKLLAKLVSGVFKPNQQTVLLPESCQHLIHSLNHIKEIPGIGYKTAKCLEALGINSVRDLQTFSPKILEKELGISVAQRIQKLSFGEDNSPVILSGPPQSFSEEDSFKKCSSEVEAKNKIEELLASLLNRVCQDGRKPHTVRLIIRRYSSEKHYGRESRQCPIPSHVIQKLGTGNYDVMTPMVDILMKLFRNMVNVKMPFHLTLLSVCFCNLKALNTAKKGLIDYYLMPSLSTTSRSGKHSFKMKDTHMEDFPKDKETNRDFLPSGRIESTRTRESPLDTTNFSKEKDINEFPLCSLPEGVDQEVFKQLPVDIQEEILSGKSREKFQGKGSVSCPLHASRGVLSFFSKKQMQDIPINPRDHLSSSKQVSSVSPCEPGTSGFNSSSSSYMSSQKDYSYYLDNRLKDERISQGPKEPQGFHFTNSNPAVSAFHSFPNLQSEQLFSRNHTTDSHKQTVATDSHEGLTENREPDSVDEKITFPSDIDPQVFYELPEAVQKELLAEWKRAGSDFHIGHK

molecular target: DNA polymerase iota (Homo sapiens) (UniProt Q9UNA4); test: qHTS for Inhibitors of Polymerase Iota; conditions: Pol iota fluorescent replication assay, 10 min; series mostly up to 115 µM; activity, negative = inhibition: at the top concentration
Outline: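 Fluorescent replication assay read twice, at 0 min and 10 min after adding 50 nM (final) substrate. Enzyme (10 nM) and compounds were first incubated 15 min at room temperature; enzyme-free buffer wells were negative controls.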
Potency is the fitted concentration of half-maximal effect.

Row | SMILES | Potency | activity, negative = inhibition
1 | Cc1cc(=O)c(C(=O)Nc2cccc(C(=O)NC3CC3)c2)nn1-c1ccccc1Cl | inconclusive: 31.6 µM [inhibitor, partial curve, poor fit] | 
2 | COc1ccc(-c2cnc(SCC(=O)Nc3nc(C(C)(C)C)cs3)n2Cc2ccco2)cc1 | inconclusive: 15.8 µM [inhibitor, partial curve] | 
3 | Cc1ccsc1C(=O)OCC(=O)N(C)c1c(N)n(Cc2ccccc2)c(=O)[nH]c1=O | inconclusive: 89.1 µM [inhibitor, single point] | 
4 | CC(=O)Nc1ccc(S(=O)(=O)N2CCN(Cc3ccncc3)CC2)cc1 | inconclusive: 28.2 µM [inhibitor, partial curve] | 
5 | O=C(C(Cc1ccc(Cl)cc1)NS(=O)(=O)c1ccccc1)N1CC[C@@]2(O)CCCC[C@H]2C1 (some centres undefined) | inconclusive: 7.08 µM [inhibitor, partial curve, poor fit] | 
6 | C=CCNC(=O)CN1CCN(Cc2ccc3c(c2)OCO3)CC1 | inconclusive: 10 µM [inhibitor, full curve, poor fit] | 
7 | O=C(CN1CCN(Cc2ccccc2)CC1)NNC(=O)c1ccccc1 |  | inactive: -14.6%
8 | O=C1Nc2ccccc2C(=O)C1(Cl)Cc1ccccc1 (centres undefined) | inconclusive: 28.2 µM [inhibitor, partial curve, poor fit] | 
9 | N#Cc1ccc(C(=O)NCCCSc2ccccc2)cc1 | inconclusive: 89.1 µM [inhibitor, partial curve, poor fit] | 
10 | Cc1ccccc1C(=O)Nc1ccc2c(c1)OCCO2 | inconclusive: 39.8 µM [inhibitor, single point] | 
11 | O=C1Nc2cc(C(=O)N3CCN(c4ccc(F)cc4)CC3)ccc2NC1CSCc1cccc(F)c1 (centres undefined) | inconclusive: 28.2 µM [inhibitor, single point] | 
12 | COc1ccc(NC(=O)Cn2c(=O)c3cccn3c3ccccc32)cc1 | inconclusive: 89.1 µM [inhibitor, single point] | 
13 | COc1ccc(S(=O)(=O)NCCc2sc(-c3cccnc3)nc2C)cc1 |  | inactive: 8.97%
14 | CC(=O)Nc1nc(COc2ccccc2)cs1 | inconclusive: 112 µM [inhibitor, single point] | 
15 | CCC(CO)Oc1cc(NC(=O)c2ccc([N+](=O)[O-])cc2)c2ncn(C(C)C)c2c1 (centres undefined) | inconclusive: 8.91 µM [inhibitor, partial curve, poor fit] | 
16 | C[C@H](NC(=O)c1nc[nH]c1C(=O)N1CCc2ccccc2C1)c1ccccc1 | inconclusive: 89.1 µM [inhibitor, single point] | 
17 | CC(C)N(CCCNC(=O)c1ccc(CS(=O)(=O)c2c(Cl)cccc2Cl)o1)Cc1ccccc1 | inconclusive: 89.1 µM [inhibitor, single point] | 
18 | CCOC(=O)c1[nH]c(C)c(CCC(=O)N2CCN(c3ccc(OC)cc3)CC2)c1C |  | inactive: -8.7%
19 | COc1ccc(OC)c(C2CC(=O)N3CN(c4cccc(Cl)c4)CSC3=C2C#N)c1 (centres undefined) |  | inactive: 14%
20 | CCOC(=O)C1CCN(C(=O)C2CCN(S(=O)(=O)c3c(C)noc3/C=C/c3ccc(C)cc3)CC2)CC1 |  | inactive: 18.3%
21 | O=C(COC(=O)CCN1C(=O)c2cccc([N+](=O)[O-])c2C1=O)NCc1ccccc1 | inconclusive: 89.1 µM [inhibitor, single point] | 
22 | COc1cc(OC)cc(C(=O)Nc2ccc3c(c2)CCCN3C(=O)c2cccs2)c1 | inconclusive: 79.4 µM [inhibitor, partial curve, poor fit] | 
23 | O=C(O)c1ccccc1-n1cnnn1 |  | inactive: -7.05%

Row | SMILES | Potency | activity, negative = inhibition
24 | O=c1c2ccccc2cnn1Cc1nnc(-c2cccs2)o1 | inconclusive: 20 µM [inhibitor, full curve] | 
25 | CC12C=CC(=O)C=C1CCC1C2CCC2(C)C(C(=O)CO)CCC12 (centres undefined) | inconclusive: 89.1 µM [inhibitor, single point] | 
26 | CCOC(=O)/C(=C/c1ccc(OC(F)F)cc1)C1=Nn2c(nnc2-c2ccc(Cl)cc2)SC1 | inconclusive: 25.1 µM [inhibitor, partial curve] | 
27 | CCN(C(=O)COC(=O)c1ccc(-n2c(C)ccc2C)cc1)c1c(N)n(Cc2ccccc2)c(=O)[nH]c1=O | inconclusive: 56.2 µM [inhibitor, partial curve, poor fit] | 
28 | O=C(OCCNC(=O)c1ccc2ccccc2n1)c1cccnc1 | inconclusive: 89.1 µM [inhibitor, single point] | 
29 | CCc1cccc(C)c1NC(=O)COn1nnc2ccc(C(F)(F)F)cc21 | inconclusive: 100 µM [inhibitor, partial curve, poor fit] | 
30 | CCNCC(=O)Nc1ccc(N2CCOCC2)cc1 | inconclusive: 39.8 µM [inhibitor, single point] | 
31 | Cc1cc(C(=O)CCl)c(C)n1Cc1ccco1 | inconclusive: 22.4 µM [inhibitor, full curve] | 
32 | Cc1cc(C)n2ncc(/C(N)=N/OC(=O)c3ccccc3F)c2n1 | inconclusive: 3.55 µM [inhibitor, partial curve, poor fit] | 
33 | O=C(COc1ccc(Br)cc1)N1CCCCCC1 |  | inactive: -12.8%
34 | CCOc1ccc(CCNC(=O)NCc2noc3ccc(C)cc23)cc1 |  | inactive: 21%
35 | COc1cccc2cc(-c3cn4ccc(C)cc4n3)c(=O)oc12 | inconclusive: 50.1 µM [inhibitor, partial curve, poor fit] | 
36 | Cc1ccc2c(c1)[C@H]1[C@H](CO2)[C@H](c2ccccc2)[C@]2(C)C(=O)Nc3cc(F)ccc3C(=O)N12 | inconclusive: 3.55 µM [inhibitor, partial curve, poor fit] | 
37 | CN(C)c1ccc(/C=C(\Cl)c2nc3ccccc3s2)cc1 |  | inactive: 27.8%
38 | CC1CCN(C(c2ccc(F)cc2)c2sc3nc(-c4ccco4)nn3c2O)CC1 (centres undefined) |  | inactive: 15.6%
39 | COc1cccc(NC(=O)CN(C)C(=O)c2cc3c(s2)CCC(C)C3)c1 (centres undefined) |  | inactive: 13.5%
40 | COc1ccc(N(CC(=O)N/N=C/c2ccco2)S(=O)(=O)c2ccccc2)cc1 | inconclusive: 15.8 µM [inhibitor, full curve] | 
41 | c1cc2c(cc1Cc1cncc(Cc3ccc4c(c3)OCO4)c1)OCO2 |  | inactive: 33.6%
42 | Cc1cc2c(c(=O)o1)C(c1ccc([N+](=O)[O-])o1)C(C#N)=C(N)O2 (centres undefined) | active: 20 µM | 
43 | COc1ccc(/C=C2/SC(=S)N(NS(=O)(=O)c3ccccc3)C2=O)cc1 |  | inactive: 75.7%
44 | COc1ccc(C)cc1NC(=O)Cn1nc(N2CCN(c3ccccc3OC)CC2)ccc1=O | inconclusive: 100 µM [inhibitor, single point] | 
45 | CCc1ccc(/C=C2/SC(=S)N(CC(=O)Nc3nc4ccccc4s3)C2=O)cc1 | inconclusive: 28.2 µM [inhibitor, single point] | 
46 | CCOc1ccc(S(=O)(=O)Nc2cccnc2)cc1 | inconclusive: 39.8 µM [inhibitor, single point] | 

Row | SMILES | Potency | activity, negative = inhibition
47 | COc1ccc(-c2ccc(SC)nn2)cc1 |  | inactive: 73.8%
48 | Fc1ccccc1COc1ccc(Br)cc1CNCc1ccncc1 | inconclusive: 12.6 µM [inhibitor, partial curve, poor fit] | 
49 | O=C(Cc1cccs1)N[C@@H]1c2ccccc2CC[C@H]1OCc1ccccc1 | inconclusive: 0.794 µM [inhibitor, full curve, poor fit] | 
50 | Cc1ccc2c(c1)C1(C=CC(=O)C=C1)CC(=O)N2C |  | inactive: 8.51%
51 | CCCc1cc(=O)oc2c(C)c(OCc3nn[nH]n3)ccc12 | inconclusive: 79.4 µM [inhibitor, partial curve, poor fit] | 
52 | O=C(CN1C(=O)C2CC=CCC2C1=O)Nc1ccc(S(=O)(=O)Nc2ncccn2)cc1 (centres undefined) | inconclusive: 15.8 µM [inhibitor, full curve, poor fit] | 
53 | C[C@@H]1[C@H](c2ccccc2)OCCS(=O)(=O)N1Cc1ccc(F)cc1 |  | inactive: 2.61%
54 | COC(=O)c1scc(-c2ccc(C)cc2)c1S(=O)(=O)Nc1ccc(OC(F)(F)F)cc1 |  | inactive: -14.8%
55 | CCOC(=O)/C=C(\C)Sc1cc(=O)oc2ccccc12 |  | inactive: 19.4%
56 | CC(C)c1ccc(N2C(=O)CSC23C(=O)N2CCCc4cccc3c42)cc1 (centres undefined) | inconclusive: 89.1 µM [inhibitor, single point] | 
57 | O=C(CSc1nc(=O)n(Cc2ccco2)c2c1CCC2)NCc1ccccc1Cl |  | inactive: 33.4%
58 | COc1ccc(Cc2nnc(N/N=C/c3ccc(O)cc3)[nH]c2=O)cc1OC |  | inactive: -4.89%
59 | COc1cccc(/C=N/NC(=O)c2ccc3nc[nH]c3c2)c1O | inconclusive: 79.4 µM [inhibitor, single point] | 
60 | COc1ccccc1C(c1nnnn1Cc1ccccc1)N1CCN(C2CCCC2)CC1 (centres undefined) | inconclusive: 39.8 µM [inhibitor, single point] | 
61 | Cc1ccccc1CNC(=O)CCCn1c(=O)c2cccn2c2ccccc21 |  | inactive: 18.4%
62 | Cc1ccc(S(=O)(=O)/N=C2/NC(=O)/C(=C\c3cc(Br)cc(Br)c3O)S2)cc1 | inconclusive: 56.2 µM [inhibitor, partial curve, poor fit] | 
63 | O=C(N/N=C/c1ccc[nH]1)c1cccnc1 | inconclusive: 28.2 µM [inhibitor, single point] | 
64 | CCOc1cccc(CC(=O)N2CCc3c([nH]c4ccccc34)C2c2ccc(C)cc2)c1OCC (centres undefined) |  | inactive: -1.67%
65 | CC(CNC(=O)c1ccc(CSc2nc3ccncc3n2Cc2cccc(F)c2)cc1)c1ccccc1 (centres undefined) |  | inactive: 6.69%
66 | Cc1ccc2onc(CC(=O)Nc3cc(F)ccc3F)c2c1 | inconclusive: 70.8 µM [inhibitor, single point] | 
67 | COC(=O)c1c(SC)nc2ccccc2c1OCc1ccc(C)cc1C |  | inactive: 17.6%
68 | Cn1c(SCC(=O)NCc2ccco2)nnc1-c1cccc(NC(=O)c2ccccc2)c1 |  | inactive: 24.8%
69 | COc1ccc2c(c1)NC(c1cc(Cl)cc(Cl)c1O)c1cccn1-2 (centres undefined) | inconclusive: 89.1 µM [inhibitor, single point] | 

3 compounds drawn at random from those above, as already listed:
Row | SMILES | Potency | activity, negative = inhibition
51 | CCCc1cc(=O)oc2c(C)c(OCc3nn[nH]n3)ccc12 | inconclusive: 79.4 µM [inhibitor, partial curve, poor fit] | 
55 | CCOC(=O)/C=C(\C)Sc1cc(=O)oc2ccccc12 |  | inactive: 19.4%
47 | COc1ccc(-c2ccc(SC)nn2)cc1 |  | inactive: 73.8%
